# PubChem BioAssay AID1224830, NIAID | 2016
# Purpose: 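Genes whose knock-down alters the TNF-alpha reporter response to LPS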 (primary screen)
# Cells: human THP-1 monocytic leukaemia cells, TNF dual-luciferase reporter clone, PMA-differentiated to macrophage-like cells
# Reagent: siRNA pool against human genes, 50 nM
# Time to read-out: LPS for 4 h, given about 3 days after siRNA transfection
# Conditions: bacterial LPS (TLR4 ligand), 10 ng/ml
# Measurement: 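Ratio of firefly to renilla light, scaled to the plate median and expressed as a robust z-score per replicate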
# Direction: TNF reporter robust z-score: higher = stronger TNF reporter response to LPS
# Hit rule: 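Each well counts as active if its z-score is over 2.8 or under -1.5; controls are left without a call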
# The deposit covers about 18,000 reagents; shown is a part drawn at random. About 2,900 of them (16%) were called active. 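Calls are made per well; low scores hint the gene aids the LPS response, high scores that it dampens it.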 A number with no mark means an inactive call. Repeated entries: four replicate wells of each siRNA pool. Reagent sequences are not shown.
TNF reporter robust z-score,Gene
0.32,PDCD10 (programmed cell death 10)
0.6,PDCD10 (programmed cell death 10)
-1.01,PDCD10 (programmed cell death 10)
-1.17,PDCD10 (programmed cell death 10)
2.93 (active),SAGE1 (sarcoma antigen 1)
1.43,SAGE1 (sarcoma antigen 1)
0.78,SAGE1 (sarcoma antigen 1)
2.41,SAGE1 (sarcoma antigen 1)
-0.17,ERF (ETS2 repressor factor)
0.74,ERF (ETS2 repressor factor)
0.85,ERF (ETS2 repressor factor)
0.25,ERF (ETS2 repressor factor)
1.25,MRPL52 (mitochondrial ribosomal protein L52)
1.33,MRPL52 (mitochondrial ribosomal protein L52)
0.67,MRPL52 (mitochondrial ribosomal protein L52)
1.42,MRPL52 (mitochondrial ribosomal protein L52)
-0.35,SMAD3 (SMAD family member 3)
0.02,SMAD3 (SMAD family member 3)
0.08,SMAD3 (SMAD family member 3)
0.62,SMAD3 (SMAD family member 3)
-0.31,DGUOK (deoxyguanosine kinase)
-0.51,DGUOK (deoxyguanosine kinase)
-0.54,DGUOK (deoxyguanosine kinase)
0.45,DGUOK (deoxyguanosine kinase)
0.19,SYPL1 (synaptophysin like 1)
0.2,SYPL1 (synaptophysin like 1)
0.29,SYPL1 (synaptophysin like 1)
-0.07,SYPL1 (synaptophysin like 1)
-1.03,AXDND1 (axonemal dynein light chain domain containing 1)
-1.48,AXDND1 (axonemal dynein light chain domain containing 1)
-1.18,AXDND1 (axonemal dynein light chain domain containing 1)
-0.5,AXDND1 (axonemal dynein light chain domain containing 1)
-0.57,RPS19BP1 (ribosomal protein S19 binding protein 1)
-0.38,RPS19BP1 (ribosomal protein S19 binding protein 1)
-1.17,RPS19BP1 (ribosomal protein S19 binding protein 1)
1.66,RPS19BP1 (ribosomal protein S19 binding protein 1)
-0.91,WDR18 (WD repeat domain 18)
-1.48,WDR18 (WD repeat domain 18)
-1.06,WDR18 (WD repeat domain 18)
2.69,WDR18 (WD repeat domain 18)
1.62,TMCO1 (transmembrane and coiled-coil domains 1)
1.31,TMCO1 (transmembrane and coiled-coil domains 1)
1.78,TMCO1 (transmembrane and coiled-coil domains 1)
0.72,TMCO1 (transmembrane and coiled-coil domains 1)
0.07,SPRY2 (sprouty RTK signaling antagonist 2)
-0.98,SPRY2 (sprouty RTK signaling antagonist 2)
-0.86,SPRY2 (sprouty RTK signaling antagonist 2)
0.4,SPRY2 (sprouty RTK signaling antagonist 2)
-0.46,RUFY2 (RUN and FYVE domain containing 2)
-0.02,RUFY2 (RUN and FYVE domain containing 2)
0.47,RUFY2 (RUN and FYVE domain containing 2)
0.54,RUFY2 (RUN and FYVE domain containing 2)
-0.54,ZDHHC18 (zDHHC palmitoyltransferase 18)
-0.18,ZDHHC18 (zDHHC palmitoyltransferase 18)
-0.63,ZDHHC18 (zDHHC palmitoyltransferase 18)
0.02,ZDHHC18 (zDHHC palmitoyltransferase 18)
1.16,DPH2 (diphthamide biosynthesis 2)
1.49,DPH2 (diphthamide biosynthesis 2)
0.5,DPH2 (diphthamide biosynthesis 2)
0.96,DPH2 (diphthamide biosynthesis 2)
0.03,ATP11A (ATPase phospholipid transporting 11A)
0.58,ATP11A (ATPase phospholipid transporting 11A)
-0.31,ATP11A (ATPase phospholipid transporting 11A)
1.29,ATP11A (ATPase phospholipid transporting 11A)
0.4,LCTL (lactase like)
0.93,LCTL (lactase like)
0.58,LCTL (lactase like)
0.16,LCTL (lactase like)
-0.28,NIPA1 (NIPA magnesium transporter 1)
-0.83,NIPA1 (NIPA magnesium transporter 1)
-1.25,NIPA1 (NIPA magnesium transporter 1)
-1.02,NIPA1 (NIPA magnesium transporter 1)
1.14,ALDH3B2 (aldehyde dehydrogenase 3 family member B2)
2.17,ALDH3B2 (aldehyde dehydrogenase 3 family member B2)
0.84,ALDH3B2 (aldehyde dehydrogenase 3 family member B2)
1.77,ALDH3B2 (aldehyde dehydrogenase 3 family member B2)
1.41,ATP1A4 (ATPase Na+/K+ transporting subunit alpha 4)
0.19,ATP1A4 (ATPase Na+/K+ transporting subunit alpha 4)
1.33,ATP1A4 (ATPase Na+/K+ transporting subunit alpha 4)
2.15,ATP1A4 (ATPase Na+/K+ transporting subunit alpha 4)
2.01,CARMIL1 (capping protein regulator and myosin 1 linker 1)
2.05,CARMIL1 (capping protein regulator and myosin 1 linker 1)
0.54,CARMIL1 (capping protein regulator and myosin 1 linker 1)
1.43,CARMIL1 (capping protein regulator and myosin 1 linker 1)
0.94,DCTN1 (dynactin subunit 1)
2.69,DCTN1 (dynactin subunit 1)
2.45,DCTN1 (dynactin subunit 1)
1.95,DCTN1 (dynactin subunit 1)
0.9,DNAAF8 (dynein axonemal assembly factor 8)
-0.09,DNAAF8 (dynein axonemal assembly factor 8)
-0.6,DNAAF8 (dynein axonemal assembly factor 8)
1.01,DNAAF8 (dynein axonemal assembly factor 8)
0.34,CCL16 (C-C motif chemokine ligand 16)
0.05,CCL16 (C-C motif chemokine ligand 16)
1.54,CCL16 (C-C motif chemokine ligand 16)
1.28,CCL16 (C-C motif chemokine ligand 16)
-0.15,PLEK (pleckstrin)
0.23,PLEK (pleckstrin)
0.77,PLEK (pleckstrin)
-0.13,PLEK (pleckstrin)
0.04,PQBP1 (polyglutamine binding protein 1)
-0.13,PQBP1 (polyglutamine binding protein 1)
-0.35,PQBP1 (polyglutamine binding protein 1)
0.98,PQBP1 (polyglutamine binding protein 1)
1.11,"LSM8 (LSM8 homolog, U6 small nuclear RNA associated)"
4.6 (active),"LSM8 (LSM8 homolog, U6 small nuclear RNA associated)"
0.15,"LSM8 (LSM8 homolog, U6 small nuclear RNA associated)"
2.69,"LSM8 (LSM8 homolog, U6 small nuclear RNA associated)"
-0.56,ODF1 (outer dense fiber of sperm tails 1)
-0.52,ODF1 (outer dense fiber of sperm tails 1)
-0.78,ODF1 (outer dense fiber of sperm tails 1)
0.01,ODF1 (outer dense fiber of sperm tails 1)

12 entries from above in another layout:
| TNF reporter robust z-score | Gene |
| --- | --- |
| 1.33 | MRPL52 (mitochondrial ribosomal protein L52) |
| 0.67 | MRPL52 (mitochondrial ribosomal protein L52) |
| 1.42 | MRPL52 (mitochondrial ribosomal protein L52) |
| -0.35 | SMAD3 (SMAD family member 3) |
| 0.02 | SMAD3 (SMAD family member 3) |
| 0.08 | SMAD3 (SMAD family member 3) |
| 0.62 | SMAD3 (SMAD family member 3) |
| -0.31 | DGUOK (deoxyguanosine kinase) |
| -0.51 | DGUOK (deoxyguanosine kinase) |
| -0.54 | DGUOK (deoxyguanosine kinase) |
| 0.45 | DGUOK (deoxyguanosine kinase) |
| 0.19 | SYPL1 (synaptophysin like 1) |
